Test results published in patent publication US9707126B2, “Systems and methods for corneal cross-linking with pulsed light” (Avedro, Inc., priority 2009, dated 2017).

Test system: porcine corneal flap
Assay: Dissolved oxygen below corneal flap saturated with Riboflavin during UVA irradiation (O2 sensor)
Protocol: FIG. 2A illustrates a graph of depletion and gradual replenishment curve of dissolved oxygen below a 100 μm thick porcine corneal flap, saturated with 0.1% Riboflavin during 3 mW/cm^2 UVA irradiation at 25° C. The oxygen concentration (mg/L) fell to zero at about 15 seconds and gradually started to increase after approximately 10 minutes, getting back to approximately one-tenth its starting value after 30 minutes.
FIG. 2B illustrates a graph of oxygen recovery under a 100 μm thick corneal flap. The corneal flap was saturated with 0.1% Riboflavin during 30 mW/cm^2 UVA irradiation. The irradiation was pulsed at a 3 second on/3 seconds off cycle. Riboflavin drops were added to the cornea every 90 seconds. In this example, it took about 3 minutes for the oxygen concentration to gradually start increasing and about 6 minutes for the oxygen concentration to increase to 0.1 mg/L.
In a corroborating experiment, porcine eyes were de-epithelialized and placed in the 0.1% Riboflavin solution for 20 minutes. Eyes were removed from solution and physiological IOP was applied. A flap was cut using a femto second laser and an O2 sensor was placed under the flap. UVA illumination was administered as indicated and Riboflavin drops were applied every 90 seconds for the duration of the dose delivered. After cross-linking the flap using the pulsed light dosing, the flap was removed and tested mechanically as described above.

[1] = 100 μm flap, 0.1% Riboflavin, 30 mW/cm^2 UVA pulsed 3 seconds on/3 seconds off, drops every 90 seconds
[2] = 100 μm porcine corneal flap, 0.1% Riboflavin, 3 mW/cm^2 UVA CW, 25° C.

## Cc1cc2nc3c(=O)[nH]c(=O)nc-3n(C[C@H](O)[C@H](O)[C@H](O)CO)c2cc1C [Riboflavin]
[1]
  time for the oxygen concentration to increase to 0.1 mg/L: about 6 minutes
  time for the oxygen concentration to start increasing: about 3 minutes
[2]
  time after which oxygen concentration started to increase: approximately 10 minutes
  time at which oxygen concentration fell to zero: about 15 seconds
After 30 minutes, 0.1% Riboflavin, 3 mW/cm^2 UVA CW, 25° C.
  oxygen concentration relative to its starting value: approximately one-tenth
Irradiance of 3 mW/cm^2
  time within which oxygen concentration in the cornea depletes: 10 to 15 s
Irradiance of 30 mW/cm^2
  time within which oxygen concentration in the cornea depletes: 3 to 5 s
